# In article PMC12040169 (PLOS Biology, 2025):
# Some of the results follow.
# System: T1, CTL2-GFP (C. trachomatis L2/434/Bu, GFP-expressing)
# T1 construct: L2/434/Bu, GFP-expressing
# Parameters: species or system HeLa; Intracellular C. trachomatis growth in HeLa cells, bulk GFP fluorescence relative to DMSO
# Settings: bulk GFP, single well; 28.5 h, 10 µM; inhibitor
row,SMILES,% of control remaining
1,CS(=O)(=O)c1ccc(Nc2ncnc(N3CCC(Sc4ccccc4)CC3)c2[N+](=O)[O-])cc1 [CBK113567],127.389%
2,O=C(Nc1ccc(Cc2ccncc2)cc1)c1sc2c([N+](=O)[O-])cccc2c1Cl [CBK269635],102.914%
3,Nc1nc(OCCc2cccs2)cnc1-c1ccc(OC(F)(F)F)cc1 [CBK145116],111.596%
4,Oc1cccc(OCCOc2cc(C(F)(F)F)ccn2)c1 [CBK115788],113.008%
5,O=C(CN1C2CCC1CC(O)(c1ccco1)C2)N1CCCC1 (centres unmarked) [CBK284042],137.953%
6,c1cn2cnnc2c(N2CCc3sccc3C2)n1 [CBK305180],88.3306%
7,Cn1c(=O)oc2cc(S(=O)(=O)Nc3cccc(CCc4ccccn4)c3)ccc21 [CBK286357],98.1968%
8,COC(=O)CCc1ccc(S(=O)(=O)N2CCN(Cc3cccc4cccnc34)CC2)cc1 [CBK062969],108.004%
9,COCCNC(=O)c1ccc(-c2cc(C)cs2)nc1NCC1CC1 [CBK106259],109.771%
10,O=C(C1=C(O)C(=O)N(Cc2cccnc2)C1c1ccc(Cl)cc1Cl)c1ccccc1 (centres unmarked) [CBK263367],107.402%
11,OCC[C@H]1CN2CCCC2CN1Cc1cccn1-c1cccc(F)c1 (some centres unmarked) [CBK282985],137.463%
12,COc1ccc2cc3c(nc2c1)OC(=O)N(CC1CC1)C3 [CBK282432],2.794%
13,Cc1ccc(CC(=O)N2CCC(c3ncc(C(=O)Nc4ccc(F)cc4)c(C)n3)CC2)cc1 [CBK285884],98.9212%
14,O=C(C1CCCCC1)N1CCC(c2nnc(-c3ccsc3)o2)CC1 [CBK283380],134.858%
15,OCCC1CCCCN1c1cncc(-c2cccs2)n1 (centres unmarked) [CBK065758],111.768%
16,O=C(O)CNC(=O)/C(=C\c1ccc(F)cc1)NC(=O)c1ccco1 [CBK263718],122.62%
17,NC(=O)c1c(NC(=O)CCN2C(=O)c3cccc([N+](=O)[O-])c3C2=O)sc2c1CCCC2 [CBK263132],97.3828%
18,CC(=O)Nc1cccc(-c2cnc(NCc3ccc4c(c3)OCO4)c(C(=O)NCC3COc4ccccc4O3)c2)c1 (centres unmarked) [CBK138473T],84.7296%
19,CN(CC(=O)N1CCCCCC1)S(=O)(=O)c1cc(Cl)ccc1Cl [CBK091841],105.103%
20,O=C(NC1CCCCC1)N[C@H]1CO[C@H]2[C@@H]1OC[C@@H]2n1cc(-c2ccccc2)nn1 [CBK289505],132.215%
21,Cc1[nH]nc(Nc2ccc(I)cc2)c1[N+](=O)[O-] [CBK262748],115.821%
22,O=C(Nc1nnn[nH]1)C1(c2ccc([N+](=O)[O-])cc2)CCCC1 [CBK267237],151.8%
23,COCC1(C(=O)N2CC(=O)N(c3ccc(Cl)cc3)CC2C)CCC1 (centres unmarked) [CBK306674],110.857%
24,N#CCCCN1CCCN(c2nccc(OCC3COc4ccccc4O3)n2)CC1 (centres unmarked) [CBK083977],109.645%
25,CCn1nc(NC(=O)CCn2c(C(F)F)cc3cccnc32)cc1C [CBK285072],125.548%
26,c1ncc(N2CCCC2)nc1OCCN1CCOCC1 [CBK113430],159.091%

# Single values from the list.
# CC(=O)Nc1cccc(-c2cnc(NCc3ccc4c(c3)OCO4)c(C(=O)NCC3COc4ccccc4O3)c2)c1 (centres unmarked) [CBK138473T] | % of control remaining: 84.7296%
# Cn1c(=O)oc2cc(S(=O)(=O)Nc3cccc(CCc4ccccn4)c3)ccc21 [CBK286357] | % of control remaining: 98.1968%
# COc1ccc2cc3c(nc2c1)OC(=O)N(CC1CC1)C3 [CBK282432] | % of control remaining: 2.794%
# OCC[C@H]1CN2CCCC2CN1Cc1cccn1-c1cccc(F)c1 (some centres unmarked) [CBK282985] | % of control remaining: 137.463%

# Next part.

row,SMILES,% of control remaining
1,O=C(Nc1cccc(O)c1)c1ccc(NC(=O)C2CCCO2)cc1 (centres unmarked) [CBK269746],129.953%
2,Cc1ccc(Cc2cnc(NC(=O)NCCN3CCOCC3)s2)cc1F [CBK305449],107.698%
3,Cc1ccc2nc(-c3ccc(N4C(=O)CC(N5CCN(CCOCCO)CC5)C4=O)cc3)sc2c1 (centres unmarked) [CBK265362],106.856%
4,COc1cc(C2c3c(-c4cc(C)c(C)cc4O)n[nH]c3C(=O)N2CCO)cc(Br)c1O (centres unmarked) [CBK269009],81.7753%
5,COCc1ccsc1C(=O)Nc1ncn(CC(=O)N2CCCCCC2)n1 [CBK304160],119.688%
6,CCCC/C=C/c1cncc(N2CCCC2CO)n1 (centres unmarked) [CBK065402],169.276%
7,Cc1nc(C2CCN(C(=O)c3ccn(C)n3)CC2)c2sccn12 [CBK285202],101.372%
8,CCN1CCN(Cc2cnc(-c3ccccn3)nc2)CC1=O [CBK306678],98.9535%
9,COc1cccc(CC(=O)NCC(c2cccs2)N2CCOCC2)c1 (centres unmarked) [CBK305621],120.657%
10,COc1cccc(Cn2c(=O)c3sccc3n(CC(=O)NCc3ccc(C)cc3)c2=O)c1 [CBK300533],126.424%
11,Cc1ccc(-c2nc(C)c(C(=O)NCc3ccnc(-n4ccnc4)c3)s2)o1 [CBK298322],130.13%
12,Cc1c(C(=O)NCCCCn2ccnc2)oc2c(C)cccc12 [CBK283315],75.3794%
13,O=[N+]([O-])c1cc(S(=O)(=O)Nc2ccc3[nH]ncc3c2)ccc1Cl [CBK062537],96.6901%
14,C=CCc1ccc(OCC(=O)NN)c(OC)c1 [CBK261831],117.705%
15,Cc1noc(C)c1S(=O)(=O)NC1CCN(Cc2ccccc2)CC1 [CBK062028],142.949%
16,O=C(NCCCc1ccccn1)c1cc(-c2cccs2)no1 [CBK282652],104.859%
17,Cc1cc(=O)[nH]c(SCCC(=O)O)n1 [CBK268242],106.923%
18,O=S(=O)(c1ccc(OC(F)(F)F)cc1)N1CCc2ccccc21 [CBK044279],67.1721%
19,Cc1oc(C(=O)Nc2cccc(CCc3ccncc3)c2)cc1CN1CCOCC1 [CBK285547],150.299%
20,COc1ccc(-n2cc(-c3ccc(F)cc3)nn2)cc1 [CBK113111],69.4882%
21,C=CCN1C(=O)C2(CC(=O)N(CC)C2=O)c2cc(F)ccc21 (centres unmarked) [CBK075318],99.1624%
22,COc1ccccc1NC(=O)c1ccc(OC(C)C(=O)O)cc1 (centres unmarked) [CBK266109],160.391%
23,Ic1ccc2ncnc(NCCN3CCOCC3)c2c1 [CBK265655],107.609%
24,CCCS(=O)(=O)N1CCN(C(=O)COc2ccc3ccccc3c2)CC1 [CBK264290],99.1674%
25,COc1cccc(CCNC(=O)NC(=O)C2CCN(S(C)(=O)=O)CC2)c1 [CBK034860],154.2%
26,CCOc1c(CNCCN2CCOCC2)cccc1OC [CBK278182C],145.436%

row,SMILES,% of control remaining
1,Cc1cccc(-n2c(N)cc(=O)nc2SC(C)C(=O)Nc2ccc(S(N)(=O)=O)cc2)c1 (centres unmarked) [CBK266173],152.172%
2,O=C1Cc2cc3ccccc3cc2C2(CCN(C(=O)c3ccccc3C(=O)O)CC2)N1 [CBK047216],120.453%
3,O=C(O)C1CCCCC1C(=O)N1CCN(Cc2cccc3ccccc23)CC1 (centres unmarked) [CBK270293],143.107%
4,Cc1ccc(NS(=O)(=O)c2ccc(CCC(=O)N3CCc4ccccc4C3)cc2)cc1 [CBK267616],103.829%
5,Cc1nn(C)c(C)c1CC(=O)Nc1nc(C(C)(C)C)cs1 [CBK250992],83.0956%
6,O=C(Nc1ccc(=O)n2c1[C@@H]1C[C@@H](CN(C(=O)c3ccc(F)cc3)C1)C2)c1cncnc1 [CBK288713],124.206%
7,Cc1nn(C)c(C)c1CC(=O)NC1CCN(c2c(F)cccc2F)C1 (centres unmarked) [CBK306307],89.2994%
8,CNC(=O)c1ccc(-c2ccc(CNC(=O)C(C)Oc3ccc(C)c(C)c3)cc2)nc1C (centres unmarked) [CBK286014],112.937%
9,Cn1c(N)nc2c(ncn2[C@H]2C[C@@H](O)[C@@H](CO)O2)c1=O [CBK201215],125.612%
10,C#C[C@H]1C[N@@]2CC[C@H]1C[C@@H]2CNS(=O)(=O)c1cccc(C#N)c1 [CBK288753],116.08%
11,CS(=O)(=O)N(CC(=O)NCc1ccccn1)c1cc(Cl)cc(Cl)c1 [CBK266459],143.817%
12,COc1ccc([C@@]23CC[C@@H](NC(=O)Nc4cccc(-c5nn[nH]n5)c4)C[C@@H]2N(C)CC3)cc1OC [CBK051273T],105.15%
13,CCOC(=O)c1sc(NC(=O)c2ccccc2Br)nc1C [CBK067745],109.821%
14,CCc1ccc2[nH]c(=O)c(CN(CCN(C)C)C(=S)NCc3ccccc3)cc2c1 [CBK134905],111.293%
15,c1ccc2c(CCN3CCC(Oc4nccnc4OCCN4CCOCC4)CC3)c[nH]c2c1 [CBK082939T],127.001%
16,COc1nc(OC)nc(Sc2ccc(N)cc2)n1 [CBK019319],126.854%
17,COCCNC(=O)CC1Sc2ccccc2NC1=O (centres unmarked) [CBK268443],115.427%
18,CCC(=O)NC(=S)Nc1cccc(NC(=O)c2cccc(Cl)c2)c1 [CBK058759],100%
19,COc1cccc(C2C(C(=O)c3ccc(Cl)cc3)=C(O)C(=O)N2CCN2CCOCC2)c1 (centres unmarked) [CBK264901],91.1941%
20,O=S(=O)(c1ccccc1)n1c(CO)cc2c(C(F)(F)F)cc(CN3CCNCC3)cc21 [CBK143799],115.013%
21,O=C(O)CNC(=O)/C(=C\c1ccccc1F)NC(=O)c1ccccc1 [CBK263961],112.648%
22,Cc1ccc(CCC(=O)N(CCC#N)C2CCOCC2)c(C)c1 [CBK305809],106.828%
23,COc1ncc(-c2cc(N3CCN(c4ccccn4)CC3)ncn2)c(OC)n1 [CBK037707],208.442%
24,COC(=O)c1ccc(-c2ccc(Cl)c(Cl)c2)nc1 [CBK149231],150.016%
25,CCn1cc(C(C)NC(=S)Nc2ccc(OC)cc2OC)c(C)n1 (centres unmarked) [CBK266950],149.802%
